Reference: paper PMC4458714
These are yes or no findings as the source states them, for the method shown. In cells and extracts the contact can be indirect. Some binding calls cover weakened binding; strength is not graded here.

Sequences of proteins named here, by UniProt entry; tags and fusion partners are left off.
UniProt O97159: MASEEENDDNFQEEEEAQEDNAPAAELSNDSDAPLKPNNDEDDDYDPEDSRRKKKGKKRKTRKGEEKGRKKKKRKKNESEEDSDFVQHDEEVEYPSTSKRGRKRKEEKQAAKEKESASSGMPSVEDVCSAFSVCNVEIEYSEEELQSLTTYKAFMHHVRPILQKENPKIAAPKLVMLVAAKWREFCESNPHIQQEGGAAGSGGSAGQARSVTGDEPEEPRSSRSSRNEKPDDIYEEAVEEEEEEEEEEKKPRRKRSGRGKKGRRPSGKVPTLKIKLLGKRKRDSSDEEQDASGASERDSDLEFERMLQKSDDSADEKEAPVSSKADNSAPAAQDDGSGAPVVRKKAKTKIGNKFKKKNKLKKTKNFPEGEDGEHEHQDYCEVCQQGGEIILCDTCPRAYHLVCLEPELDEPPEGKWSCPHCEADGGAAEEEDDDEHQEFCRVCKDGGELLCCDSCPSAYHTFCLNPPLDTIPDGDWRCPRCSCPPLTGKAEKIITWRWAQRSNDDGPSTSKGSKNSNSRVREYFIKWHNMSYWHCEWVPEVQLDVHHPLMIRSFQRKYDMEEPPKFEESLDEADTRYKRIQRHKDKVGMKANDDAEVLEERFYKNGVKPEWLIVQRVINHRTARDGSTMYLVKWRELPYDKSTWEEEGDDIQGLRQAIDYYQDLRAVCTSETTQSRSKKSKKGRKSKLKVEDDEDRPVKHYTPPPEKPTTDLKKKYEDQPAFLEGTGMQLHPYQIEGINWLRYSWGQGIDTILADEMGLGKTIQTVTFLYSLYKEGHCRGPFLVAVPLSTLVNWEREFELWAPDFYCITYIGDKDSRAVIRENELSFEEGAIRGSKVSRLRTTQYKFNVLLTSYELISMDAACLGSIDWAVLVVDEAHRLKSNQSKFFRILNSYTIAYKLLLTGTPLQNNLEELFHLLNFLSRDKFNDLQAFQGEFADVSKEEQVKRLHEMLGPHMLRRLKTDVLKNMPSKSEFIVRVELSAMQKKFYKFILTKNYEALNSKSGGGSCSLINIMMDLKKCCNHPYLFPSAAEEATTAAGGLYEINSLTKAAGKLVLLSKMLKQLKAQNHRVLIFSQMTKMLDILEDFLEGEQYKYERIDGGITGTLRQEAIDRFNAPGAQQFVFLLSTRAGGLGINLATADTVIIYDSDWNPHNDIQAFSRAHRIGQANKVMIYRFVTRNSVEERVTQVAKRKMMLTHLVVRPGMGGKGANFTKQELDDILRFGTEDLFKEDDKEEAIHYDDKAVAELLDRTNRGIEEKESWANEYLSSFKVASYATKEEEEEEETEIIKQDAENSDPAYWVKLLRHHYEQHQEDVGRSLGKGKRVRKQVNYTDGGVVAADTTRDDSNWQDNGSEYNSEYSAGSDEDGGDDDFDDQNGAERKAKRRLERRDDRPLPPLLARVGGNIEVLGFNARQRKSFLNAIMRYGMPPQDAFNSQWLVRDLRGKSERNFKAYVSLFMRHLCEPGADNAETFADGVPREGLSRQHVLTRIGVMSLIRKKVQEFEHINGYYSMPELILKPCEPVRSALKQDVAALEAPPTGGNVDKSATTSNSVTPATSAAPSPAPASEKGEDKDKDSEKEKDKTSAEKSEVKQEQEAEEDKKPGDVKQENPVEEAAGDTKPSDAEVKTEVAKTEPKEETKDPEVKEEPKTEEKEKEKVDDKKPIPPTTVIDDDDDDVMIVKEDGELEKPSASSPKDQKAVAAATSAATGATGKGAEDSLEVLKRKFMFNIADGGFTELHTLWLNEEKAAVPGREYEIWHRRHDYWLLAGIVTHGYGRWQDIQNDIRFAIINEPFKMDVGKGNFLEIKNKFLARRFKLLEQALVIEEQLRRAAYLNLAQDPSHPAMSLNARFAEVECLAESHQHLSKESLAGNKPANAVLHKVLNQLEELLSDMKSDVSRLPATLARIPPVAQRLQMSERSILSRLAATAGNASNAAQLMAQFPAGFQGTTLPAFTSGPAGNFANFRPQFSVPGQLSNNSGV

Key:
[1] = target: Mi-2 (Drosophila melanogaster (endogenous in S2 cells)) (UniProt O97159); assay: co-IP; endogenous proteins from S2 cell extracts after RNase treatment, Western blot for Topo II
[2] = target: Mi-2 (Drosophila melanogaster (endogenous in S2 cells)) (UniProt O97159); assay: co-IP; endogenous proteins: 2 mg untransfected S2 cell extract with a specific antibody (anti-MEP-1, anti-Mi-2 or anti-p66) overnight at 4 °C, Protein G agarose, Western blot; with or without MSL2 knockdown; mock IP with generic IgG

B1: Topo II (protein, UniProt P15348 1-1447)
chain: MENGNKALSIEQMYQKKSQLEHILLRPDSYIGSVEFTKELMWVYDNSQNRMVQKEISFVPGLYKIFDEILVNAADNKQRDKSMNTIKIDIDPERNMVSVWNNGQGIPVTMHKEQKMYVPTMIFGHLLTSSNYNDDEKKVTGGRNGYGAKLCNIFSTSFTVETATREYKKSFKQTWGNNMGKASDVQIKDFNGTDYTRITFSPDLAKFKMDRLDEDIVALMSRRAYDVAASSKGVSVFLNGNKLGVRNFKDYIDLHIKNTDDDSGPPIKIVHEVANERWEVACCPSDRGFQQVSFVNSIATYKGGRHVDHVVDNLIKQLLEVLKKKNKGGINIKPFQVRNHLWVFVNCLIENPTFDSQTKENMTLQQKGFGSKCTLSEKFINNMSKSGIVESVLAWAKFKAQNDIAKTGGRKSSKIKGIPKLEDANEAGGKNSIKCTLILTEGDSAKSLAVSGLGVIGRDLYGVFPLRGKLLNVREANFKQLSENAEINNLCKIIGLQYKKKYLTEDDLKTLRYGKVMIMTDQDQDGSHIKGLLINFIHTNWPELLRLPFLEEFITPIVKATKKNEELSFYSLPEFEEWKNDTANHHTYNIKYYKGLGTSTSKEAKEYFQDMDRHRILFKYDGSVDDESIVMAFSKKHIESRKVWLTNHMDEVKRRKELGLPERYLYTKGTKSITYADFINLELVLFSNADNERSIPSLVDGLKPGQRKVMFTCFKRNDKREVKVAQLSGSVAEMSAYHHGEVSLQMTIVNLAQNFVGANNINLLEPRGQFGTRLSGGKDCASARYIFTIMSPLTRLIYHPLDDPLLDYQVDDGQKIEPLWYLPIIPMVLVNGAEGIGTGWSTKISNYNPREIMKNLRKMINGQEPSVMHPWYKNFLGRMEYVSDGRYIQTGNIQILSGNRLEISELPVGVWTQNYKENVLEPLSNGTEKVKGIISEYREYHTDTTVRFVISFAPGEFERIHAEEGGFYRVFKLTTTLSTNQMHAFDQNNCLRRFPTAIDILKEYYKLRREYYARRRDFLVGQLTAQADRLSDQARFILEKCEKKLVVENKQRKAMCDELLKRGYRPDPVKEWQRRIKMEDAEQADEEDEEEEEAAPSVSSKAKKEKEVDPEKAFKKLTDVKKFDYLLGMSMWMLTEEKKNELLKQRDTKLSELESLRKKTPEMLWLDDLDALESKLNEVEEKERAEEQGINLKTAKALKGQKSASAKGRKVKSMGGGAGAGDVFPDPDGEPVEFKITEEIIKKMAAAAKVAQAAKEPKKPKEPKEPKVKKEPKGKQIKAEPDASGDEVDEFDAMVEGGSKTSPKAKKAVVKKEPGEKKPRQKKENGGGLKQSKIDFSKAKAKKSDDDVEEVTPRAERPGRRQASKKIDYSSLFSDEEEDGGNVGSDDDGNASDDDSPKRPAKRGREDESSGGAKKKAPPKKRRAVIESDDDDIEIDEDDDDDSDFNC
[1]
  binding: no binding (condition: after RNase treatment)
[2]
  binding: binds

B2: MSL1 (protein, UniProt P50535 1-1039)
chain: MDKRFKWPPKKRANYLESPYPHIPSRGRQRNLHGHPNQTQHLHQHPGKIYERQQYGNGRGGHGGGNNNYRKLLHSLPAEHGGGAMAPPSSGGTVCAGADMVKLISENNNLRRMVMLNLNLMQEQTDSIAAKDKELDDQSAKMSVVKAQNEELKQAVAQLEAANQELCKQLRRKNQRRNDNDDDDDDPPLPPAAPQQKLIRCHAETQTVFREREQGTQTIDAQPQFANALPRGINMKESPALDHHAGAVTNQPASKRSESKGRGEFNGKKVSTFILQRMNQDFEHHIHEQTEVAEEHEMEAHKEQISQEEDQLVAEEDHLHMQEVHTEEVVGGDIFHDALESIEMEVVTEELVDMEEHGQSVDANGHIEEDDDEDDEDDENSDKDDDSEEDDYPWMHSDADVNARTEEELWQNQNYLLELDPTEEKTCAPSAHSTPNHQQKSSTQAEIRKEGNQNRITEKLLQLKPEPMVDALEAPILPKWVAFKKKDKEHESVPESPEVPKQQPHQEDAIVDHNAIKNQLEVPKPDLKPKDQPKDEQRQDGQLDVRVEPQEDVRKVQKETLKRQPEDAPKHLPKAVAPKVTKTSSRESTLPKANTADIKDAPAQKVIANHQSTKTQTDPVKTQRLQVKIRQYEMHPDMRTGSSAPSDIRKQKNVDPVSTPETKTIKSKSMLVNDKKTTSETSQSPDQEIDVETVRRKLAEHLKKELLSQSHSSQVTLKKIRERVATNLIYPPPSAPVSSTTITPAPTPSTTPTPGSTPQHAVTSSMDQEISAAKSKSKAAEQIATPLTPQSNSSVSSTTSTIRKTLNNCSPHTYSKATARSGKLQSRFRTATFPYSTRTWEDQEFHCDNEFFLEEADELLADNPSLEIPKWRDVPVPPSSDKIDTELLSDATFERRHQKYVKDEVDRKCRDARYMKEQIRLEQLRMRRNQDEVLVALDPLRASTFYPLPEDIEAIQFVNEVTVQAFGENVVNMEARDDFGVPWVDAIEAPTSIARSKALAEPVATLASKKIPTTAAEARHQENHSSYVFPKRRKRQKNR
[2]
  binding: no binding
